Values quoted from earlier work in article PMC8764166, “Phenolic-Rich Plant Extracts With Antimicrobial Activity: An Alternative to Food Preservatives and Biocides?” (Frontiers in Microbiology, 2022).

Tested on: S. aureus
Set-up: method as in Liu et al., 2021b
Details: sub-inhibitory concentrations; ref Liu et al., 2021b

O=C(/C=C/c1ccc(O)cc1)OC1C(O)C(O)CC(O)(C(=O)O)C1O (stereo not drawn) [3-p-trans-coumaroyl-2-hydroxyquinic acid]
differentially expressed genes: 935 | differentially expressed proteins: 438
